The SangsterLogP compilation

logD (pH 13.0) | logP | Compound
-0.17 |  | C1CN=C2CCCN2C1
 | 0.13 | NC(=O)NNc1ccccc1
